The target in assay [1] is DCP1-TurboID-6xHis-3xFLAG (Arabidopsis). Put plainly: proximity labelling.
Assay [2] has the same target. Put plainly: affinity purification with mass spectrometry.

These are yes or no findings as the source states them, for the method shown. Binding seen in cells or lysates may run through a third protein. A yes stands for co-enrichment or nearness to the bait. Other partners may have been found.

Among the data in publication doi:10.1101/2022.06.03.494746 are binding values, retold here.

B1: ECT4 (protein, UniProt A0A1P8AS03 1-605)
chain: MSTVAPPADQAADVLKKLSLDSKSRTLEIPEPTKKTGVYQYGAMDSNGQVPSFDRSLSPMLPSDALDPSVFYVPNVYQQPYYYGYGSDYTGYTNSESVDMTSGAYGENASLVYPQGYGYAAFPYSPATSPAPQLGGDGQLYGAQQYQYPFPLTASSGPFASSVPASTQSKLSTNKAANSASAGIPKGMNGSAPVKPLNQSALYGNSALGGGLAAGYQDPRYSYDGFYTPVSWHDGSNFSDVQRSVSGSGVASSYSKANNNVPATRNQNSSSNSHYTSMYQPASMTGYAAQGYYDRVSPNKSYGQYGSTVRSGMGYGSSGYGSRTNERGWLNTDNKYRSRGRGNSYFYGNENIDGLNELNRGPRAKGTKATEEVSSEEVKKQTFDESNTEETVTCVLPDREECNRDDFPVEYKDAKFFIIKSYSEDDVHKSIKYNVWASTPNGNKKLDAAYQEAQQKSSGCPVFLFFSVNASGQFIGLAEMKGPVDFNKNIEYWQQDKWTGSFPLKWHILKDVPNSLLKHITLEYNENKPVTNSRDTQEVKLEQGLKVVKIFKEHNSKTCILDDFSFYEARQKTILEKKAKQQQSQKQVWEGKTNDEKPGTVDSTM
B1: in assay [1], the binding result is on record as “binds”.

B2: MLN51 (protein, UniProt Q93ZJ9 1-605)
chain: MAPDGVEDSDYESDPDELNRSLATRRREASDDDEDDEEADDHDKLRAAIQIHSDEHSGVVVVDSDDNEGLHIEDSYGDDDDEEEDGDYGQVDDHVEYIADNNDKTIVAGNGTDDSAATDLVDGEEQKKKEPFAVPTAGAFYMHDDRFQELDAASNRRMRGGRRLWQSRDERKWGHDKFEEMNTQKQQYDRRTSRGRGRGRGQGRGQDRGQSRGNNSKEFTGNGHQNQFPKAVTRGRGARRYEVALRNGNQAPSVQTKQSQNSSVEVSHVDLGRPPTETATLETEAIQAKKNVFASSLNSASPPFYPSRSNNNLAQKDVQAGMGRLHINENPNPTGKKFGNTKSSSLWGRTAQTTSHGRGVPPHGQVLYQQSPNQGDKVSSPMQIRGMPKGTDQSCTQLPGQVFNQHSAVISLLPSSPPKTGSSENPYLSGEIESAVETGALVAKGKGSLQPSGRGSFMYGGTQFMGPAGMAAGHGNPNFPAFLPVMQFGGQHGGVPTFGMALPGYFQPEHGTGNPEMTWLPILAGPGALGGSYCPPYTVLDGSYQADKPGLPSSAGSSSQENSSNNPNDEEPMERPEVTNNGNSQRSNSNPNKQPRRYSEMSFSK
On to B2, for which, in assay [1], the binding result is reported as “binds”.

B3: GRL/NAP125 (protein, UniProt Q5S2C4 1-1425)
chain: MANSRQYYPSQDESMSPTSVRSREWEGPSRWTEYLGPEMAASVSSTRSSKQIDGHVGGSTKALNIQWVVQMIEVADGLMAKMYRLNQILEYPDPVGHVFSEAFWKAGVFPNHPRICTLLSKKFPEHFSKLQLERIDKFSLDSLHDGAELHLQSLEPWIQLLLDLMAFREQALRLILDLSSTVITLLPHQNSLILHAFMDLFCAFVRVNLFAEKIPRKMLLQVYNLLHALSRNDRDCDFYHRLVQFIDSYDPPLKGLQEDLNFVSPRIGEVLEAVGPSIFLSADTRKLRNEGFLSPYHPRFPDILTNSAHPMRAQDLANVTSYREWVLLGYLVCPDELLRVTSIDIALVVLKENLVVTLFRDEVSLYQMVCEKEFGIGISFASADSINLTMQYILLHEDYQLYVLPRVLESKKMAKSGRTKQKEADLEYSVAKQVEKMISEVHEQALQLCDTIHRERRILLKQEIGRMVLFFTDQPSLLAPNIQMVFSALALAQSEVLWYFQHAGIASSRSKAARVIPVDIDPNDPTIGFLLDGMDRLCCLVRKYISAARGYALSYLSSSAGRIRYLMGTPGIVALDLDPTLKGLFQRIVQHLESIPKAQGENVSAITCDLSDFRKDWLSILMIVTSSRSSINIRHLEKATVSTGKEGLLSEGNAAYNWSRCVDELESQLSKHGSLKKLYFYHQHLTTVFRNTMFGPEGRPQHCCAWLSVASSFPECASLIIPEEVTKFGRDAVLYVESLIESIMGGLEGLINILDSEGGFGALESQLLPEQAAAYLNNASRISAPSVKSPRVVGGFTLPGHESYPENNKSIKMLEAAIQRLTNLCSILNDMEPICVINHVFVLREYMRECILGNFKRRFLTALQTDNDLQRPSVLESLIRRHMGIVHLAEQHVSMDLTQGIREILLTEAFSGPVSSLHTFEKPAEQQQTTGSAVEVVCNWYMDNIIKDVSGAGILFAPRHKYFKSTRPVGGYFAESVTDLKELQAFVRIFGGYGVDRLDRMMKVHTAALVNCIETSLRSNRELIEAAAASMHSGDRVERDASVRQIVDLDTVIGFCIEAGQALAFDDLLAEASGAVLEDNASLIHSMISGIVEHIPEEIPEKKEIRRIKGVANGVGVAGDHDSEWVRLILEEVGGANDNSWSLLPYFFASFMTSNAWNTTGFNIETGGFSNNIHCLARCISAVIAGSEYVRLQREYQQQHQSLSNGHHSSENLDSEFPPRVTAEASIKSSMLLFVKFAASIVLDSWSEANRSHLVAKLIFLDQLCEISPYLPRSSLESHVPYTILRSIYTQYYSNTPSTPLSTASPYHSPSVSLIHASPSMKNSTTPQRGSGSGSSSTAAPDSGYFKGSSSSLYGQEHYTESETGNSRNNENNNNNKQRGSSRRSGPLDYSSSHKGGSGSNSTGPSPLPRFAVSRSGPISYKQHN
B3: the binding entry in assay [1] is on record as “binds”.

B4: VAP27-1 (protein, UniProt Q8VZ95 1-256)
chain: MSNIDLIGMSNRDLIGMSNSELLTVEPLDLQFPFELKKQISCSLYLTNKTDNNVAFKVKTTNPKKYCVRPNTGVVLPRSTCEVLVTMQAQKEAPSDMQCKDKFLLQGVIASPGVTAKEVTPEMFSKEAGHRVEETKLRVTYVAPPRPPSPVHEGSEEGSSPRASVSDNGHGSEFSFERFIVDNKAGHQENTSEARALITKLTEEKQSAIQLNNRLQRELDQLRRESKKSQSGGIPFMYVLLVGLIGLILGYIMKRT
In the case of B4, the binding result in assay [1] is listed as “binds”.

B5: DRP2A (protein, UniProt Q9SE83 1-914)
chain: MEAIDELSQLSDSMKQAASLLADEDPDETSSSKRPATFLNVVALGNVGAGKSAVLNSLIGHPVLPTGENGATRAPIIIELSRESSLSSKAIILQIDNKSQQVSASALRHSLQDRLSKGASGKNRDEINLKLRTSTAPPLKLVDLPGLDQRIVDESMIAEYAQHNDAILLVIVPASQASEISSSRALKIAKEYDPESTRTIGIIGKIDQAAENSKALAAVQALLSNQGPPKTTDIPWVAVIGQSVSIASAQSGSGENSLETAWRAESESLKSILTGAPQSKLGRIALVDTLASQIRSRMKLRLPSVLSGLQGKSQIVQDELARLGEQLVNSAEGTRAIALELCREFEDKFLLHLAGGEGSGWKVVASFEGNFPNRIKQLPLDRHFDLNNVKRVVLEADGYQPYLISPEKGLRSLIKIVLELAKDPARLCVDEVHRVLVDIVSASANATPGLGRYPPFKREVVAIASAALDGFKNEAKKMVVALVDMERAFVPPQHFIRLVQRRMERQRREEELKGRSSKKGQDAEQSLLSRATSPQPDGPTAGGSLKSMKDKPSPQDKETPEVSGLKTAGPEGEITAGYLMKKSAKTNGWSRRWFVLNEKTGKLGYTKKQEERNFRGTITLEECTIEEIPEDEVEKSKSSKDKKANGPDSKGPGLVFKITCKVPYKTVLKAHNALVLKAESVVDKNEWINKLQKVIQARGGQVGSVSMRQSLSEGSLDKMVRKPIDPEEELRWMSQEVRGYVEAVLNSLAANVPKAVVLCQVEKAKEDMLNQLYSSISAIGNERIESLIQEDQNVKRRRERYQKQSSLLSKLTRQLSIHDNRAAAASSYSDNSGTESSPRASGGSSGDDWMNAFNSAANGPSDSLSKYGSGGHSRRYSDPAQNGDAASPGSGSNRRTTPNRLPPAPPPTGSAYRY
In the case of B5, the binding entry in assay [2] and in assay [1] was “binds” in each case.

B6: DRP2B (protein, UniProt Q9LQ55 1-920)
chain: MEAIDELSQLSDSMRQAASLLADEDPDETSSSRRPATSLNVVALGNVGAGKSAVLNSLIGHPVLPTGENGATRAPIIIDLSREESLSSKAIILQIDNKNQQVSASALRHSLQDRLSKGASGRGRDEIYLKLRTSTAPPLKLIDLPGLDQRIVDDSMIGEHAQHNDAILLVVVPASQASEISSSRALKIAKEYDPESTRTVGIISKIDQAAENPKSLAAVQALLSNQGPPKTTDIPWVALIGQSVSIASAQSGGSENSLETAWRAESESLKSILTGAPQSKLGRIALVDTLASQIRSRMKLRLPNILTGLQGKSQIVQDELARLGEQLVSSAEGTRAIALELCREFEDKFLLHLAGGEGSGWKVVASFEGNFPNRIKKLPLDRHFDLNNVKRIVLEADGYQPYLISPEKGLRSLIKTVLELAKDPARLCVDEVHRVLVDIVSASANATPGLGRYPPFKREVVAIASAALDGFKNEAKKMVVALVDMERAFVPPQHFIRLVQRRMERQRREEELKGRSSKKGQDAEQSLLNRATSPQPDGPSSTGGSLKSLRDKLMPQDKDKDKEKETPEVSGLKTAGPEGEITAGYLMKKSAKTNGWSRRWFVLNEKTGKLGYTKKQEERNFRGTVTLEECSIEEISDDEGEKSKSSKDKKSNGPDSKGPGLVFKITCRVPYKTVLKAHNALVLKAESMVDKNEWINKLQKVIQARGGQVGSASMRQSLSEGSLDKMVRKPVDPEEELRWMSQEVRGYVEAVLNSLAANVPKAVVLCQVEKSKEDMLNQLYSSISAIGNERIESLIQEDQNVKRRRDRYQKQSSLLSKLTRQLSIHDNRAAAASSWSDNSGTESSPRTNGGSSGEDWMNAFNAAASGPDSLKRYGSGGHSRRYSDPAQNGEDSSGSGGSSRRTTPNRLPPAPPQSGSSYRY
For the molecule B6, the binding result in assay [2] and in assay [1] was “binds” throughout.

B7: FLXL1 (protein, UniProt Q93V84 1-331)
chain: MSGRNRGPPPPSMKGGSYSGLQAPVHQPPFVRGLGGGPVPPPPHPSMIDDSREPQFRVDARGLPPQFSILEDRLAAQNQDVQGLLADNQRLAATHVALKQELEVAQHELQRIMHYIDSLRAEEEIMMREMYDKSMRSEMELREVDAMRAEIQKIRADIKEFTSGRQELTSQVHLMTQDLARLTADLQQIPTLTAEIENTKQELQRARAAIDYEKKGYAENYEHGKIMEHKLVAMARELEKLRAEIANSETSAYANGPVGNPGGVAYGGGYGNPEAGYPVNPYQPNYTMNPAQTGVVGYYPPPYGPQAAWAGGYDPQQQQQQQPPPQGQGHR
On to B7, for which the binding result in assay [1] was “binds”.

B8: SOSEKI3 (protein, UniProt Q8GYT8 1-540)
chain: MEARMKKYSREVSPERAKVWTEKSPKYHQKIKKVQIVYYLSKNRQLEHPHFMEVLISSPNGLYLRDVIERLNVLRGRGMASMYSWSSKRSYRNGFVWHDLSEDDLILPANGNEYVLKGSELFDESNSDHFSPIVNLATQNMKQIVVEPPSSRSMDDSSSSSSMNNGKGTNKHSHEDDELSPPALRSVSSSGVSPDSRDAKNSSSWCLAEYKVYKSEGLADASTQTDETVSGRSKTPIETFSRGVSTDEDVSSEPETSENNLVSEASCAGKERESAEISRNSVSPPFSNSASSLGGKTDTLESLIRADVSKMNSFRILEQEDVRMPAIPRLRASNMLMQLISCGSISVKDNNFGLVPTYKPKFGHSKFPSPFFSSSFMMGDLDRLSETPSLMGLRMEEKEYFSGSLVETKLQKKDAADSNASLKRSSSYNGDRASNQMGVAENGDSKPDSSKNNPSSRKASSILGKQQPLVSEKRRDSSEDTTKNIPCTTKTHDACSKRITESLRKPDSFREDEERVIKIDERLASGARVRIESKVPSEEP
B8: the binding entry in assay [1] is listed as “binds”.
